# Measurements published in the supplement of paper PMC6411743.
# ± gives the standard deviation of the averaged measurements. The entries are a selection whose mix differs from that of the whole data set.
# Tests used:
# Test in all cases: NP40-soluble protein abundance relative to vehicle (solubility fold change) (ratio); higher = more soluble protein in presence of ATP
# [1] = biological target: T1, A0A087WUK6|A0A087WZT0|M0QZ22 and related entries (UniProt Q5PRF9)
# T1 sequence (whole entry): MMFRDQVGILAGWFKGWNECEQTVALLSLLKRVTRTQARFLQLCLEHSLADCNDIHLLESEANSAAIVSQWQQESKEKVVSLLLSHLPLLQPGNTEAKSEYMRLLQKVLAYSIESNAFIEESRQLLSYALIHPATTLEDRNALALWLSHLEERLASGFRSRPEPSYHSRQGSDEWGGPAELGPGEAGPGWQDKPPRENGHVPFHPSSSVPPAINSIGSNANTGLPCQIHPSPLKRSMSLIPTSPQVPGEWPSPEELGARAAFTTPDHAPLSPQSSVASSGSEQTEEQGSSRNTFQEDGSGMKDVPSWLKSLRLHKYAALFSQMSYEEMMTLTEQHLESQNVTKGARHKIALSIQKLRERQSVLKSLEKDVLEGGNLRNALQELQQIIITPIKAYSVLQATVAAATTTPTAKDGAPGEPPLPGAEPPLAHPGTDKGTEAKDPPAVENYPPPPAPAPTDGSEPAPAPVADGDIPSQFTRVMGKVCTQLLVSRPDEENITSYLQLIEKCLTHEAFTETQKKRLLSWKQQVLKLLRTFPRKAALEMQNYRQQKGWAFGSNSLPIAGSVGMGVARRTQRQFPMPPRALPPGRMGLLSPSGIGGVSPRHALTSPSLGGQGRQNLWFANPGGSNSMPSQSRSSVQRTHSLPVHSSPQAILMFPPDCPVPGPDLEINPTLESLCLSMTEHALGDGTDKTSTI
# How it was run: (§1)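 Jurkat crude lysate (Dounce-homogenised) was treated with eight concentrations from 0.1 to 10 mM for 10 min at room temperature, then 3 min at 37 °C. It was solubilised with 0.8% NP40 and benzonase (60 min, 4 °C) and ultracentrifuged, and the supernatant was TMT-labelled for LC-MS/MS. Intensities were vsn-normalised, and the value is the fold change against the NP40-processed vehicle per replicate, from three independent experiments.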
# [2] = biological target: T2, A0A087WVU5|O00512 (UniProt O00512)
# T2 sequence (whole entry): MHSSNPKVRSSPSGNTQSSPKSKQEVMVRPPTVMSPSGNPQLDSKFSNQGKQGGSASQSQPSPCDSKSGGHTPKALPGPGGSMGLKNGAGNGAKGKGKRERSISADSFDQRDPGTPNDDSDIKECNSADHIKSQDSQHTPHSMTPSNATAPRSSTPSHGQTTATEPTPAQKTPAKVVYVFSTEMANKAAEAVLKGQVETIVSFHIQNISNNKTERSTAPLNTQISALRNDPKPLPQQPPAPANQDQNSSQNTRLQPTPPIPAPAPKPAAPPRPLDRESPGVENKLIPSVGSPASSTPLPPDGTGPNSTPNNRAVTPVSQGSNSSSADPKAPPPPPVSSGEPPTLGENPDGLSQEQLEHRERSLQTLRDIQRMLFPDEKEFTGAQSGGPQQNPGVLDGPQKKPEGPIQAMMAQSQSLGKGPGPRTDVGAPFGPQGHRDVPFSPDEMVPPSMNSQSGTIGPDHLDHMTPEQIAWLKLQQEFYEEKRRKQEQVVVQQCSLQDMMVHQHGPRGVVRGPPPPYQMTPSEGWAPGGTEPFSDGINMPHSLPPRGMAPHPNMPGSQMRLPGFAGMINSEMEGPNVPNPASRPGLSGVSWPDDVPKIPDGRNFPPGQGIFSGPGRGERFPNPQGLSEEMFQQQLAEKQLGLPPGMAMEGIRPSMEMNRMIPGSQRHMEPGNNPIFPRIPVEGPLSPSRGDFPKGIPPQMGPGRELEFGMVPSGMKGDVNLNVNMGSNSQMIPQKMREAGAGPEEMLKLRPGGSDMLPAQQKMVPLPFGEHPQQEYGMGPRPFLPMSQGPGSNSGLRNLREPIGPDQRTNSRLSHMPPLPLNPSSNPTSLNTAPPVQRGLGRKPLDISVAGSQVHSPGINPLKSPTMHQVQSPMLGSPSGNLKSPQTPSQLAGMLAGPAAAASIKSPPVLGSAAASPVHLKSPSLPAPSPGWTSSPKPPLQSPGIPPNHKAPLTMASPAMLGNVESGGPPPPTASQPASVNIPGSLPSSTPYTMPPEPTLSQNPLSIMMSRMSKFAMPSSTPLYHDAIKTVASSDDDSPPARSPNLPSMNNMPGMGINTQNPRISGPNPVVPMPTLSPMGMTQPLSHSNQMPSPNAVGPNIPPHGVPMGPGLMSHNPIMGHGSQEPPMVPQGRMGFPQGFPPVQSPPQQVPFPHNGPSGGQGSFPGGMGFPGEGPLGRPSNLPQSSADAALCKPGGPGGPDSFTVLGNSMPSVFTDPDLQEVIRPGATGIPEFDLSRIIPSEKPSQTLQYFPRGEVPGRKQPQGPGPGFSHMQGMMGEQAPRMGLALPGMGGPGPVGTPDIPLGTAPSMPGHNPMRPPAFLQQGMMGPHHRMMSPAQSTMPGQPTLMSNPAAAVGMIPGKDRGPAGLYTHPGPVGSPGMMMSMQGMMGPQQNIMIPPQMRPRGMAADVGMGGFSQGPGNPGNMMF
# How it was run: as §1
# [3] = biological target: T3, A0A087WVZ0|Q9Y5U8 (UniProt Q9Y5U8)
# T3 sequence (whole entry): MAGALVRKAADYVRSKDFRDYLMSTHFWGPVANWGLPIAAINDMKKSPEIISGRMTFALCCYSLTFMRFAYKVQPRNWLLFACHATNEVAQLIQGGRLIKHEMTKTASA
# How it was run: as §1
# [4] = biological target: T4, A0A087WWU1|Q96Q45 and related entries (UniProt Q96Q45)
# T4 sequence (whole entry): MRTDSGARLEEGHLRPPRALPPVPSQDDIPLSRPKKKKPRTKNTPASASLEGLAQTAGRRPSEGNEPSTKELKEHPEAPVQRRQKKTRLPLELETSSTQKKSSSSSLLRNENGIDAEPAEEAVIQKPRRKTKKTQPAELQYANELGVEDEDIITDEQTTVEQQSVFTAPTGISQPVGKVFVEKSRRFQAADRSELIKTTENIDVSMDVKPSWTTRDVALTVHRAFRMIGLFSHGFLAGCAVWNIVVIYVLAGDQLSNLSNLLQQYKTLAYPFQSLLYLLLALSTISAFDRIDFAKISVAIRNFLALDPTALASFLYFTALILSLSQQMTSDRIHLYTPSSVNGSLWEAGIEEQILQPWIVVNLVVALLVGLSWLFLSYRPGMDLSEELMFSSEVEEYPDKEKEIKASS
# How it was run: as §1
# [5] = biological target: T5, A0A087WXF8|A0A087WXU5|A0A087WYF0|A0A0D9SEW3|Q9NP64 and related entries (UniProt Q9NP64)
# T5 sequence (whole entry): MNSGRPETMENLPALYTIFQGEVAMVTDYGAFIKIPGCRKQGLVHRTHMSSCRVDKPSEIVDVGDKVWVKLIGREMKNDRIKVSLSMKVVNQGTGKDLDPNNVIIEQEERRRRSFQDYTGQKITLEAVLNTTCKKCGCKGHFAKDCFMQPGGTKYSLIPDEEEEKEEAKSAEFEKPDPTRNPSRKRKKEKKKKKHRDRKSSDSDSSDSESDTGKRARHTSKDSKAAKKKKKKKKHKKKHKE
# How it was run: as §1
# [6] = biological target: T6, A0A087WXR2|F5H1Z6 and related entries (UniProt Q9Y365)
# T6 sequence (whole entry): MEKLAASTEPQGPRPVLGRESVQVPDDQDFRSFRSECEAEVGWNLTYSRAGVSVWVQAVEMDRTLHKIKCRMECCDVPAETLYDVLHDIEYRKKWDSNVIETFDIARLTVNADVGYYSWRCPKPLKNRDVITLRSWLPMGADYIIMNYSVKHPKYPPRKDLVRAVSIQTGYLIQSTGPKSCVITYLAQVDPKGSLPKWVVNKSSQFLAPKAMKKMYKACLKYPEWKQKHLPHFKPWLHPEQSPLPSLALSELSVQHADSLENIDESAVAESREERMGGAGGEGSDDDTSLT
# How it was run: as §1
# [7] = biological target: T7, A0A087X0R6|Q9UMY4 and related entries (UniProt Q9UMY4)
# T7 sequence (whole entry): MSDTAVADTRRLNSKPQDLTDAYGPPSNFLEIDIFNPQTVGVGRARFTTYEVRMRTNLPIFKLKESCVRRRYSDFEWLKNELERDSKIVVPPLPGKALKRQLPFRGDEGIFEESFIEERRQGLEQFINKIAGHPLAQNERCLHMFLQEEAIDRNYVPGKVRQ
# How it was run: as §1
# [8] = biological target: T8, A0A087X1S7|P09326 (UniProt P09326)
# T8 sequence (whole entry): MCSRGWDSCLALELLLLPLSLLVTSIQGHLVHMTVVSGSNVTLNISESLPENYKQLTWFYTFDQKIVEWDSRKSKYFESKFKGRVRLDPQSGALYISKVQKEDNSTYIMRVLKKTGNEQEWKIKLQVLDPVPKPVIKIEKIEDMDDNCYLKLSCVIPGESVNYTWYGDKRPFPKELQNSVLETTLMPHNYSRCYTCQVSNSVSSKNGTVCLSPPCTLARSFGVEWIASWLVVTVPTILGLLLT
# How it was run: as §1
# [9] = biological target: T9, A0A0A0MRK6|Q13505 and related entries (UniProt Q13505)
# T9 sequence (whole entry): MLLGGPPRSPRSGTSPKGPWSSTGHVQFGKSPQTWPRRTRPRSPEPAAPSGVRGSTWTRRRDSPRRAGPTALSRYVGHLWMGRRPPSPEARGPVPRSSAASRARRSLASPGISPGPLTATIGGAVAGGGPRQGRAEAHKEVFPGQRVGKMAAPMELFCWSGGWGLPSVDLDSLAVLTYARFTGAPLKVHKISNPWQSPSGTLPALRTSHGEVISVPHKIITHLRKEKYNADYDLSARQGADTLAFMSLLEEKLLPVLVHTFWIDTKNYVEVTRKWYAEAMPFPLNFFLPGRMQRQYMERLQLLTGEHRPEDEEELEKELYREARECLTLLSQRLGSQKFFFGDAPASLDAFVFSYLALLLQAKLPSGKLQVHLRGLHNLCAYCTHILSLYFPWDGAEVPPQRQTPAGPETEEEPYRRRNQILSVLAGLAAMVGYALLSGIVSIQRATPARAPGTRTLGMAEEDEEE
# How it was run: as §1
smiles,measurement,setting,value
Nc1ncnc2c1ncn2[C@@H]1O[C@H](COP(=O)(O)OP(=O)(O)OP(=O)(O)O)[C@@H](O)[C@H]1O [adenosine triphosphate],NP40-soluble protein abundance,[1]; concentration: 1mM,0.99 ± 0.075
same,NP40-soluble protein abundance,[1]; concentration: 2mM,1.01 ± 0.076
same,NP40-soluble protein abundance,[1]; concentration: 4mM,1.06 ± 0.043
same,NP40-soluble protein abundance,[1]; concentration: 6mM,1.03 ± 0.11
same,NP40-soluble protein abundance,[1]; concentration: 8mM,1.02 ± 0.05
same,NP40-soluble protein abundance,[1]; concentration: 10mM,1.04 ± 0.095
same,NP40-soluble protein abundance,[2]; concentration: 1mM,0.973 ± 0.06
same,NP40-soluble protein abundance,[2]; concentration: 2mM,0.972 ± 0.13
same,NP40-soluble protein abundance,[2]; concentration: 4mM,0.917 ± 0.043
same,NP40-soluble protein abundance,[2]; concentration: 6mM,0.944 ± 0.073
same,NP40-soluble protein abundance,[2]; concentration: 8mM,0.92 ± 0.048
same,NP40-soluble protein abundance,[2]; concentration: 10mM,0.921 ± 0.046
same,NP40-soluble protein abundance,[3]; concentration: 1mM,1 ± 0.2
same,NP40-soluble protein abundance,[3]; concentration: 2mM,1.01 ± 0.17
same,NP40-soluble protein abundance,[3]; concentration: 4mM,0.961 ± 0.1
same,NP40-soluble protein abundance,[3]; concentration: 6mM,0.913 ± 0.088
same,NP40-soluble protein abundance,[3]; concentration: 8mM,0.902 ± 0.022
same,NP40-soluble protein abundance,[3]; concentration: 10mM,0.952 ± 0.12
same,NP40-soluble protein abundance,[4]; concentration: 1mM,0.982 ± 0.097
same,NP40-soluble protein abundance,[4]; concentration: 2mM,1.02 ± 0.013
same,NP40-soluble protein abundance,[4]; concentration: 4mM,1.05 ± 0.059
same,NP40-soluble protein abundance,[4]; concentration: 6mM,1.06 ± 0.044
same,NP40-soluble protein abundance,[4]; concentration: 8mM,1.01 ± 0.061
same,NP40-soluble protein abundance,[4]; concentration: 10mM,0.973 ± 0.026
same,NP40-soluble protein abundance,[5]; concentration: 1mM,0.92 ± 0.018
same,NP40-soluble protein abundance,[5]; concentration: 2mM,0.881 ± 0.018
same,NP40-soluble protein abundance,[5]; concentration: 4mM,0.871 ± 0.032
same,NP40-soluble protein abundance,[5]; concentration: 6mM,0.8248 ± 0.0033
same,NP40-soluble protein abundance,[5]; concentration: 8mM,0.864 ± 0.024
same,NP40-soluble protein abundance,[5]; concentration: 10mM,0.8762 ± 0.003
same,NP40-soluble protein abundance,[6]; concentration: 1mM,0.996 ± 0.1
same,NP40-soluble protein abundance,[6]; concentration: 2mM,1.01 ± 0.06
same,NP40-soluble protein abundance,[6]; concentration: 4mM,1.09 ± 0.073
same,NP40-soluble protein abundance,[6]; concentration: 6mM,0.97 ± 0.051
same,NP40-soluble protein abundance,[6]; concentration: 8mM,1.03 ± 0.081
same,NP40-soluble protein abundance,[6]; concentration: 10mM,1.07 ± 0.077
same,NP40-soluble protein abundance,[7]; concentration: 1mM,0.969 ± 0.074
same,NP40-soluble protein abundance,[7]; concentration: 2mM,0.959 ± 0.039
same,NP40-soluble protein abundance,[7]; concentration: 4mM,0.934 ± 0.053
same,NP40-soluble protein abundance,[7]; concentration: 6mM,0.935 ± 0.018
same,NP40-soluble protein abundance,[7]; concentration: 8mM,0.971 ± 0.031
same,NP40-soluble protein abundance,[7]; concentration: 10mM,0.908 ± 0.042
same,NP40-soluble protein abundance,[8]; concentration: 1mM,0.935 ± 0.12
same,NP40-soluble protein abundance,[8]; concentration: 2mM,0.931 ± 0.034
same,NP40-soluble protein abundance,[8]; concentration: 4mM,0.922 ± 0.039
same,NP40-soluble protein abundance,[8]; concentration: 6mM,0.961 ± 0.073
same,NP40-soluble protein abundance,[8]; concentration: 8mM,0.899 ± 0.025
same,NP40-soluble protein abundance,[8]; concentration: 10mM,0.84 ± 0.06
same,NP40-soluble protein abundance,[9]; concentration: 1mM,1.03 ± 0.097
same,NP40-soluble protein abundance,[9]; concentration: 2mM,1.03 ± 0.11
same,NP40-soluble protein abundance,[9]; concentration: 4mM,0.998 ± 0.1
same,NP40-soluble protein abundance,[9]; concentration: 6mM,0.952 ± 0.13
same,NP40-soluble protein abundance,[9]; concentration: 8mM,1.01 ± 0.096
same,NP40-soluble protein abundance,[9]; concentration: 10mM,0.98 ± 0.098

# Reformatted with bars between the fields: entries from further up
smiles | measurement | setting | value
Nc1ncnc2c1ncn2[C@@H]1O[C@H](COP(=O)(O)OP(=O)(O)OP(=O)(O)O)[C@@H](O)[C@H]1O [adenosine triphosphate] | NP40-soluble protein abundance | [8]; concentration: 1mM | 0.935 ± 0.12
same | NP40-soluble protein abundance | [8]; concentration: 2mM | 0.931 ± 0.034
same | NP40-soluble protein abundance | [8]; concentration: 4mM | 0.922 ± 0.039
